# Results reported in the supplement of paper PMC3334620.
# The full ranking holds about 33,000 sequences; the median of “E-score (-0.5 to 0.5)” is about -0.0034, and the highest 2% start at about 0.25. This is one part of the list.
# Molecular target: T1, Yap3 (UniProt P38749)
# T1 sequence: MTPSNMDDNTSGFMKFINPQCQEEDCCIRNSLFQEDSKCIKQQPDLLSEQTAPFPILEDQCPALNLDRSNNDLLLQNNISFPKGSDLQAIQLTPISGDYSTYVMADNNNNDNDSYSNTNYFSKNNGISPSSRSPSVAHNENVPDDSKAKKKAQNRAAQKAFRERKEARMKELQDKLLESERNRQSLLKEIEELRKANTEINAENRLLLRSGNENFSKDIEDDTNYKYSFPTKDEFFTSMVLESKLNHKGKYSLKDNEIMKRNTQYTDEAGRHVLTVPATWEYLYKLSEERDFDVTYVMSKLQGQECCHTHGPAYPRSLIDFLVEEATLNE
# Assay: PBM E-score (8-mer binding enrichment) (E-score (-0.5 to 0.5)); higher = stronger / more preferred TF binding
# Conditions: protein concentration: 100 nM; construct: GST-full length
# Procedure, shortened: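 Universal all-10-mer Agilent arrays, fresh or stripped once, were converted to double-stranded form by primer extension. GST-tagged yeast transcription factors from PURExpress in vitro transcription/translation, full-length or DNA-binding domain only, were applied at about 100-200 nM and detected with fluorescent anti-GST. After masliner normalisation, the Universal PBM Analysis Suite scored each ungapped eight-base word together with its reverse complement by E-score.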
row,Sequence,PBM E-score
1,AGAGGCAG,-0.122
2,ACTAGCCC,-0.0674
3,TCATCGCA,-0.0781
4,CCAGGAAG,-0.0698
5,GCTAGTAC,-0.00882
6,AACTGTAT,0.0673
7,CCTCATAG,-0.029
8,AGAGCCTC,-0.195
9,CTGGCTCC,-0.223
10,CAGAGATA,0.0948
11,GTTCCTTA,0.00634
12,ACGGGAAG,-0.198
13,CAGAGTAA,-0.0263
14,AATGCGTC,-0.027
15,CGGCTACC,-0.0818
16,ACAGCCAT,-0.0294
17,AACTCCGT,0.0734
18,AAGAAAGC,0.0406
19,AGTTCGAT,0.124
20,AATGGGGG,-0.279
21,AAGGGACC,0.0031
22,AACGAAAT,0.221
23,AGGCAACT,0.0833
24,TATCCTCA,0.176
25,AGAATGGC,-0.0555

row,Sequence,PBM E-score
1,ACAACACA,0.122
2,CAACCGAA,0.0856
3,GCGGGTAC,-0.102
4,ACGGTAAG,0.066
5,GCAGTACC,-0.0583
6,CAGGGCAC,-0.137
7,AACTCAAA,0.187
8,AAGCGACG,-0.185
9,TACACGGA,0.175
10,GCCACAGC,-0.146
11,ATCTGTAG,-0.103
12,TCAGATGA,0.159
13,CGTAAGCC,0.212
14,GTAGGTGA,-0.137
15,CTCGACTA,-0.0539
16,CGATGGCC,-0.0485
17,AGGGGCCA,-0.224
18,AGTAATAG,0.207
19,GCGCTCTA,-0.00542
20,TAACGCGA,0.0719
21,CCGGTAAG,-0.057
22,TACGGAGA,0.12
23,CTGTACAA,0.0137
24,TGACGAAA,0.104
25,GATCGCGA,0.0862

row,Sequence,PBM E-score
1,AAAAAGCC,0.17
2,AGATTGTA,0.154
3,TATCTAAA,0.0756
4,GGTTTCGA,0.0338
5,ATGGGGAG,-0.131
6,TCCTGCAA,-0.0566
7,CGTACGCA,-0.0879
8,GGGGCGAC,-0.0468
9,TGGCATAA,0.185
10,CGACATAG,0.00433
11,AAAGGACG,-0.0362
12,AAAAATTG,0.0568
13,TGACTGCA,-0.167
14,CTGGAGAC,-0.109
15,AATCAACT,0.157
16,CAAATAAC,0.234
17,CGCCATAC,0.00827
18,CCGAAGTA,-0.118
19,AGTTTTAT,0.199
20,TAGAAGAA,-0.021
21,AACCATTC,0.0433
22,ACATCGCC,-0.00636
23,CAATGCCA,0.00637
24,CGTTCTTA,0.131
25,AAAGCCAC,0.0244

row,Sequence,PBM E-score
1,AGGCCCGC,-0.118
2,GTCAAAAC,0.137
3,GATAGTAA,0.11
4,TATGTACA,0.155
5,CACATCGC,-0.011
6,AAAACGTC,0.0521
7,GTGAGCTA,0.0321
8,CCCACTAG,-0.223
9,ATATAAAG,0.236
10,GGCGCATA,0.0853
11,TGCATCAA,0.131
12,ATCATCCA,0.0816
13,AACCGTCT,-0.209
14,TGGCCTAA,-0.0203
15,ACTGCCTC,-0.109
16,CAAGACCG,-0.00767
17,CTCTGAAG,-0.26
18,CATGAGAC,-0.154
19,CTATTAAG,-0.13
20,AAGCATCC,-0.107
21,CGGGCTCA,-0.315
22,AGCCGCCA,-0.336
23,TCACGGAA,0.0806
24,GCCTAACA,-0.00335
25,CAATGCAA,0.11

row,Sequence,PBM E-score
1,GTACCTTA,0.14
2,AACCACAC,0.144
3,TATCAATA,0.203
4,AGTAAAAT,0.164
5,ATTGGAAA,0.0591
6,CGGAGACC,-0.142
7,CTGACAGA,0.18
8,GCACCACC,-0.24
9,CCTACAAA,-0.115
10,GGGCCTAC,-0.275
11,CACTGGCG,-0.0144
12,ATGTCCCG,-0.0663
13,CAATACAC,0.0844
14,ACTGTGCT,0.0355
15,AGACCCGG,-0.107
16,CGGTGAGA,0.0997
17,ACCCGAGA,-0.0794
18,AGGCGATA,0.0101
19,GTGTTACA,0.0421
20,GACGACAA,0.234
21,AAACGCTA,-0.113
22,CGTCAGAG,-0.0626
23,GCCGTAGC,-0.0287
24,AAGTAAAA,0.0975
25,TACCTATA,-0.123

row,Sequence,PBM E-score
1,TCCGGACA,-0.0627
2,AATCCAAG,0.147
3,ACCTCTAT,0.0106
4,GTTTAATA,0.272
5,AAGCCGAA,0.0615
6,ACTGACTA,0.0871
7,AAAACCTA,0.177
8,CCGTACCC,-0.174
9,CGCCGCCA,-0.177
10,GTGCTCCA,-0.0911
11,ACAAAAGC,0.175
12,AGGGAGAT,-0.122
13,AAGTGAAC,0.128
14,CAAATGTG,0.195
15,AACGCTGC,-0.131
16,ATGATACC,0.0925
17,ACTCGGCA,0.0944
18,GCCACTAA,-0.0425
19,GCTCGTAA,0.108
20,AAGTGTCA,-0.0281
21,GCACACAA,0.0813
22,TAATTCAA,0.168
23,GACTCGAA,-0.124
24,ACGTAAGA,0.23
25,CGCCTGGA,-0.0966

row,Sequence,PBM E-score
1,GAGCTCTA,0.116
2,CTTGAGCC,-0.202
3,AATCAACA,0.304
4,ATCGGGCC,-0.185
5,GCGAGTCC,-0.104
6,CTGTCGCC,-0.072
7,GTCACACA,0.00412
8,ACTACTAT,0.255
9,ATAGGCAT,-0.0193
10,CTGTCAAA,0.0237
11,CGTGGATC,0.119
12,GATGGCGC,-0.0517
13,GCCTTCGA,-0.102
14,CGAGACCG,-0.146
15,GGCAATAC,0.191
16,TATCTCAA,0.256
17,AACCGATA,0.107
18,AACTCCTG,-0.0928
19,GATTTGCA,0.0902
20,ACCATGGC,0.0735
21,AAAAGATA,0.116
22,CCATCCCG,-0.129

# Copied from the list.
# Entry for GCACCACC under PBM E-score: -0.24
# Entry for GTCAAAAC under PBM E-score: 0.137
# Entry for TAGAAGAA under PBM E-score: -0.021
# Entry for GGGCCTAC under PBM E-score: -0.275
# Entry for CGCCATAC under PBM E-score: 0.00827
# Entry for GGTTTCGA under PBM E-score: 0.0338
